Our source for the IC50 values is paper PMC9044549 (RSC Advances, 2021).

The test system of this assay is MCF-7 breast cancer cells. Put plainly: In vitro anti-proliferative activity, MTT assay. The following applies: Homo sapiens, MCF7, read-out: In vitro anti-proliferative activities MCF-7 IC50. The format is cell-based. (In general: Tetrazolium assays rely on reduction of a dye to a coloured formazan, in cell work by metabolically active cells.)

A word on the IC50: it is the concentration at which inhibition is half-maximal. As for `COc1cc2c(c(OC)c1OC)-c1ccc(OC)c(=O)cc1[C@@H](NC(C)=O)CC2` [Colchicine, colchicine, reference compound], the IC50 came to 10.4 ± 0.3 µM.
